PubChem BioAssay AID1259317, Drosophila RNAi Screening Center, 2017

Aim: 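Genes whose knockdown changes fly cell survival under toxic manganese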 (primary screen)
System: Drosophila S2R+ cells
Knock-down reagent: long dsRNA against Drosophila genes
Timing: 5 days (4 days knockdown, then 1 day metal)
Treatment: manganese chloride added to 15 mM final for 1 day
Detection: 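Viability read as luminescent ATP after knockdown plus a day in 15 mM manganese chloride; z-score of the mean of three replicate plates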
Reading the numbers: mean z-score, 3 replicates: higher = more ATP, more surviving cells under manganese
Rule for the call: 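a knockdown is active when its averaged z-score lies above 1.5 or below -1.5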
Meaning of the calls: active = hit: z-score beyond ±1.5 (ATP up or down); inactive = not a hit
Here is one part, drawn at random, of 418 reagents. 34 of all reagents (8.1%) count as active. 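Hits are two-sided: raised or lowered ATP both count; higher z-score means more ATP and more surviving cells.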 Not given: the amount of reagent.

| Gene | dsRNA | mean z-score, 3 replicates | call |
| --- | --- | --- | --- |
| CROT (Carnitine O-octanoyltransferase) | DRSC27733 | 0.409 | inactive |
| CROT (Carnitine O-octanoyltransferase) | DRSC32670 | -0.232 | inactive |
| CROT (Carnitine O-octanoyltransferase) | DRSC32671 | -0.995 | inactive |
| Xpc (Xeroderma pigmentosum, complementation group C) | DRSC07654 | -0.158 | inactive |
| Sap-r (Saposin-related) | DRSC21916 | -0.936 | inactive |
| Sap-r (Saposin-related) | DRSC27246 | -0.468 | inactive |
| ClC-b (Chloride channel-b) | DRSC07220 | 0.954 | inactive |
| ClC-b (Chloride channel-b) | DRSC37711 | -0.0616 | inactive |
| ClC-b (Chloride channel-b) | DRSC39990 | -0.889 | inactive |
| Npc2g (Niemann-Pick type C-2g) | DRSC14296 | -1.93 | active |
| CG17134 | DRSC02583 | 2.72 | active |
| CG14777 | DRSC18563 | 0.0175 | inactive |
| CG14777 | DRSC40040 | 0.247 | inactive |
| CG8646 | DRSC07230 | 1.46 | inactive |
| CG17544 | DRSC02624 | -0.663 | inactive |
| CG17544 | DRSC25562 | 0.441 | inactive |
| mnd (minidiscs) | DRSC11370 | 0.138 | inactive |
| mnd (minidiscs) | DRSC39608 | -0.513 | inactive |
| Ppt1 (Palmitoyl-protein thioesterase 1) | DRSC17806 | -0.731 | inactive |
| CG33128 | DRSC00294 | -1.11 | inactive |
| CG33128 | DRSC28698 | -0.992 | inactive |
| LManII (Lysosomal alpha-mannosidase II) | DRSC01986 | -0.0611 | inactive |
| VhaM9.7-a (Vacuolar H[+] ATPase M9.7 subunit a) | DRSC08289 | -0.923 | inactive |
| VhaM9.7-a (Vacuolar H[+] ATPase M9.7 subunit a) | DRSC28340 | 0.552 | inactive |
| Vps20 (Vacuolar protein sorting 20) | DRSC04448 | 0.623 | inactive |
| Vps20 (Vacuolar protein sorting 20) | DRSC36248 | -0.285 | inactive |
| Vps20 (Vacuolar protein sorting 20) | DRSC36249 | 0.0319 | inactive |
| CG5731 | DRSC02883 | -0.155 | inactive |
| CG5731 | DRSC25969 | 0.249 | inactive |
| CG5731 | DRSC37705 | -1.17 | inactive |
| Rpt6R (Regulatory particle triple-A ATPase 6-related) | DRSC15431 | 0.148 | inactive |
| Rpt6R (Regulatory particle triple-A ATPase 6-related) | DRSC41241 | 1.02 | inactive |
| Vha36-2 (Vacuolar H[+] ATPase 36kD subunit 2) | DRSC06294 | -0.467 | inactive |
| Vha36-2 (Vacuolar H[+] ATPase 36kD subunit 2) | DRSC29238 | 0.309 | inactive |
| Chc (Clathrin heavy chain) | DRSC20229 | -1.34 | inactive |
| Chc (Clathrin heavy chain) | DRSC34418 | -0.75 | inactive |
| Chc (Clathrin heavy chain) | DRSC34419 | -1.04 | inactive |
| CG17597 | DRSC02630 | 0.0436 | inactive |
| CG17597 | DRSC24788 | -0.297 | inactive |
| CG9886 | DRSC00732 | 0.35 | inactive |
| CG9886 | DRSC40409 | 0.0297 | inactive |
| CG9886 | DRSC41580 | 0.3 | inactive |
| CG31661 | DRSC00296 | -0.533 | inactive |
| CG31661 | DRSC28732 | -0.782 | inactive |
| Mcad (Medium-chain acyl-CoA dehydrogenase) | DRSC09871 | 0.569 | inactive |
| Mcad (Medium-chain acyl-CoA dehydrogenase) | DRSC25980 | 0.336 | inactive |
| Pex10 (Peroxin 10) | DRSC22021 | -0.549 | inactive |
| Pex10 (Peroxin 10) | DRSC38320 | 0.522 | inactive |
| Vps16B (Vacuolar protein sorting 16B) | DRSC15304 | -0.366 | inactive |
| Vps16B (Vacuolar protein sorting 16B) | DRSC34692 | -0.207 | inactive |
| Vps16B (Vacuolar protein sorting 16B) | DRSC34693 | -0.67 | inactive |
| Pex1 (Peroxin 1) | DRSC11358 | -0.473 | inactive |
| VhaAC39-2 (Vacuolar H[+] ATPase AC39 subunit 2) | DRSC15609 | 0.00403 | inactive |
| VhaAC39-2 (Vacuolar H[+] ATPase AC39 subunit 2) | DRSC34799 | -0.384 | inactive |
| Vps45 (Vacuolar protein sorting 45) | DRSC16398 | -1.12 | inactive |
| Vps45 (Vacuolar protein sorting 45) | DRSC34819 | -0.803 | inactive |
| Vps45 (Vacuolar protein sorting 45) | DRSC37502 | -0.536 | inactive |
| wat (waterproof) | DRSC14854 | 0.944 | inactive |
| wat (waterproof) | DRSC34735 | -0.595 | inactive |
| Lerp (lysosomal enzyme receptor protein) | DRSC14751 | 1.04 | inactive |
| Lerp (lysosomal enzyme receptor protein) | DRSC16030 | 0.59 | inactive |
| Lerp (lysosomal enzyme receptor protein) | DRSC16031 | 0.0033 | inactive |
| VhaPPA1-1 (Vacuolar H[+] ATPase PPA1 subunit 1) | DRSC24144 | 1.71 | active |
| VhaPPA1-1 (Vacuolar H[+] ATPase PPA1 subunit 1) | DRSC32232 | -1 | inactive |
| VhaPPA1-1 (Vacuolar H[+] ATPase PPA1 subunit 1) | DRSC32233 | 1.42 | inactive |
| Ect3 (Ectoderm-expressed 3) | DRSC15462 | -0.862 | inactive |
| Ect3 (Ectoderm-expressed 3) | DRSC25392 | -0.117 | inactive |
| Ect3 (Ectoderm-expressed 3) | DRSC35713 | -0.283 | inactive |
| AP-1-2beta (Adaptor Protein complex 1/2, beta subunit) | DRSC19336 | -1.69 | active |
| AP-1-2beta (Adaptor Protein complex 1/2, beta subunit) | DRSC23868 | -0.909 | inactive |
| AP-1-2beta (Adaptor Protein complex 1/2, beta subunit) | DRSC31080 | -0.289 | inactive |
| CtsL1 (Cathepsin L1) | DRSC05462 | 0.282 | inactive |
| CtsL1 (Cathepsin L1) | DRSC07363 | -1.05 | inactive |
| CtsL1 (Cathepsin L1) | DRSC29071 | -1.34 | inactive |
| Acsf2 (Acyl-CoA synthetase family member 2) | DRSC02172 | -0.421 | inactive |
| Acsf2 (Acyl-CoA synthetase family member 2) | DRSC27832 | -0.0533 | inactive |
| Hexo2 (Hexosaminidase 2) | DRSC18671 | -0.0228 | inactive |
| Acox57D-d (acyl-Coenzyme A oxidase at 57D distal) | DRSC04561 | -1.36 | inactive |
| Acox57D-d (acyl-Coenzyme A oxidase at 57D distal) | DRSC30108 | 0.229 | inactive |
| PMP34 (Peroxisomal Membrane Protein 34) | DRSC21939 | -0.0424 | inactive |
| PMP34 (Peroxisomal Membrane Protein 34) | DRSC39444 | 0.355 | inactive |
| Amacr (Alpha-methylacyl-CoA racemase) | DRSC03198 | 2.45 | active |
| CG15534 | DRSC15070 | -0.299 | inactive |
| CG15534 | DRSC26433 | -0.453 | inactive |
| Pex5 (Peroxin 5) | DRSC18552 | 0.955 | inactive |
| Pex5 (Peroxin 5) | DRSC26136 | 0.317 | inactive |
| Pex5 (Peroxin 5) | DRSC34058 | -0.472 | inactive |
| Acox57D-p (acyl-Coenzyme A oxidase at 57D proximal) | DRSC04560 | -1.13 | inactive |
| Acox57D-p (acyl-Coenzyme A oxidase at 57D proximal) | DRSC39339 | 0.0362 | inactive |
| CG3376 | DRSC04362 | -0.503 | inactive |
| CG3376 | DRSC26489 | -0.092 | inactive |
| Vps35 (Vacuolar protein sorting 35) | DRSC04519 | 1.02 | inactive |
| Vps35 (Vacuolar protein sorting 35) | DRSC28790 | 0.0556 | inactive |
| Vps35 (Vacuolar protein sorting 35) | DRSC36445 | 0.649 | inactive |
| VhaSFD (Vacuolar H[+]-ATPase SFD subunit) | DRSC03471 | 2.23 | active |
| VhaSFD (Vacuolar H[+]-ATPase SFD subunit) | DRSC32234 | -1.28 | inactive |
| VhaSFD (Vacuolar H[+]-ATPase SFD subunit) | DRSC32235 | -1.12 | inactive |
| Npc1a (Niemann-Pick type C-1a) | DRSC03378 | -0.667 | inactive |
| Npc1a (Niemann-Pick type C-1a) | DRSC33330 | -0.827 | inactive |
| Npc1a (Niemann-Pick type C-1a) | DRSC39428 | -0.435 | inactive |
| Hmgcl (3-Hydroxymethyl-3-methylglutaryl-CoA lyase) | DRSC02051 | -0.61 | inactive |
| Vps4 (Vacuolar protein sorting 4) | DRSC19338 | -2.04 | active |
| Vps4 (Vacuolar protein sorting 4) | DRSC25068 | -1.18 | inactive |
| Vps4 (Vacuolar protein sorting 4) | DRSC31082 | -0.379 | inactive |
| Vha16-1 (Vacuolar H[+] ATPase 16kD subunit 1) | DRSC05020 | -0.146 | inactive |
| Vha16-1 (Vacuolar H[+] ATPase 16kD subunit 1) | DRSC32228 | 1.47 | inactive |
| Vha16-1 (Vacuolar H[+] ATPase 16kD subunit 1) | DRSC32229 | -0.423 | inactive |
| Muc11A (Mucin 11A) | DRSC29295 | 0.695 | inactive |
| Naglu (N-acetyl-alpha-glucosaminidase) | DRSC02267 | 0.922 | inactive |
| Naglu (N-acetyl-alpha-glucosaminidase) | DRSC33899 | -0.348 | inactive |

Entries above whose target name begins with E or e:
| Gene | dsRNA | mean z-score, 3 replicates | call |
| --- | --- | --- | --- |
| Ect3 (Ectoderm-expressed 3) | DRSC15462 | -0.862 | inactive |
| Ect3 (Ectoderm-expressed 3) | DRSC25392 | -0.117 | inactive |
| Ect3 (Ectoderm-expressed 3) | DRSC35713 | -0.283 | inactive |
